# Taken from: PubChem BioAssay AID686937 (Drosophila RNAi Screening Center, 2013)
# Purpose: 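Genes in the fly needed for secretion of protein constitutively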 (primary screen)
# Cell system: Drosophila S2 cells expressing secreted horseradish peroxidase
# Knock-down reagent: long dsRNA against Drosophila genes
# Duration: about 5.5 days (5 days dsRNA, then 12 h reporter induction)
# Challenge: reporter expression induced after 5 days of dsRNA, read 12 h later; inducer not stated
# Measurement: 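Chemiluminescent measurement of peroxidase in the medium 12 h after reporter induction, following 5 days of dsRNA, given as a z-score per plate; higher means more secretion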
# Reading the numbers: z-score: higher = more reporter secreted into medium
# The deposit covers about 23,000 reagents; below is an unselected part of those with a known target gene and a result. 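Reduced-secretion tags in replicate 1 do not always agree with the z-scores; no criterion for assigning the tags was given.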 Further read-outs or replicates are left out here. The record does not give: the amount of reagent.
Target gene,amplicon,"z-score, replicate 1","z-score, replicate 2"
CG33253,DRSC19547,0.65,0.36
CG33253,DRSC20053,0.02,0.43
VepD,DRSC22318,-0.64,0.04
VhaAC39-1,DRSC18242,-0.54,-1.25
RpS15,DRSC07151,-3.99,-2.13
hop,DRSC20340,0.24,-0.04
sha,DRSC06331,0.41,0.22
CR43142,DRSC00962,0.36,0.19
CG9705,DRSC11094,0.39,0.37
mus81,DRSC18180,0.4,0.27
mus81,DRSC18644,0.21,-5.27
GNBP2,DRSC10404,0.42,0.44
CG15563,DRSC15101,0,0.24
Parp16,DRSC06597,0.38,0.36
REPTOR-BP,DRSC02683,0.03,0.43
CycA,DRSC09132,-2.94,-3.18
CycA,DRSC11123,-1.98,-3.03
CG34050 (retired record),DRSC09067,-2.51,-1.64
Hers,DRSC19429,0.04,0.21
Hers,DRSC19676,0.46,0.28
CG5958,DRSC02915,0.01,0.15
Pgant9,DRSC05621,0.53,0.26
Pgant9,DRSC06584,0.3,0.23
Pgant9,DRSC07185,0.14,0.33
Pgant9,DRSC07186,0.48,0.47
Pgant9,DRSC07187,0.69,0.37
Pgant9,DRSC07189,0.64,0.54
Pgant9,DRSC21807,-0.43,0.24
Pgant9,DRSC22076,0.62,0.55
p,DRSC16560,0.08,0.28
CG34324,DRSC19502,0.39,0.5
CG33914,DRSC05033,0.1,
CG33914,DRSC05034,0.27,

Part of the list above, set out differently:
{"Target gene":"CycA","amplicon":"DRSC09132","z-score, replicate 1":-2.94,"z-score, replicate 2":-3.18}
{"Target gene":"CycA","amplicon":"DRSC11123","z-score, replicate 1":-1.98,"z-score, replicate 2":-3.03}
